For one molecule, binding results are on record in paper doi:10.1101/2021.01.28.428596.

Assay [1] concerns the target REM1.3, yeast two-hybrid fusion (Arabidopsis thaliana) (UniProt O80837). The assay is described as follows: two-hybrid.
The target of assay [2] is T1, REMORIN-… RECEPTOR 1 (RIR1) cytoplasmic domain, yeast two-hybrid fusion (Arabidopsis thaliana) (UniProt C0LGG9).
T1 sequence: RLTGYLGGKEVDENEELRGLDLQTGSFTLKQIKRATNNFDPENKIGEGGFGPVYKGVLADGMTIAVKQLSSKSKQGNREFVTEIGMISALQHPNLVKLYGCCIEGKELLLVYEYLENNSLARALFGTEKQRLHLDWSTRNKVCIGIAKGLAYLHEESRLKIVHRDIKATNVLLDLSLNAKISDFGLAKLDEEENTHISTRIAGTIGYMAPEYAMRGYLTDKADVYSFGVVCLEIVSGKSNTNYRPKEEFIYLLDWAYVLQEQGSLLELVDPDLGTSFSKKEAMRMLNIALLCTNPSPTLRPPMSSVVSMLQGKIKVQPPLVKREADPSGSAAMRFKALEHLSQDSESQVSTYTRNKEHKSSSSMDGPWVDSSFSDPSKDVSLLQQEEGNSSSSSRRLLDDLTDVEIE
The experiment in a line: two-hybrid.

Results are given in words; binding and its absence hold for the method and conditions named. Some entries that bind do so weakly or less than the wild type. Where a sequence is shown, tags or fusion partners need not be part of it.

B1: REM1.3, yeast two-hybrid fusion (protein, UniProt O80837 1-190)
chain: MAEEQKTSKVDVESPAVLAPAKEPTPAPVEVADEKIHNPPPVESKALAVVEKPIEEHTPKKASSGSADRDVILADLEKEKKTSFIKAWEESEKSKAENRAQKKISDVHAWENSKKAAVEAQLRKIEEKLEKKKAQYGEKMKNKVAAIHKLAEEKRAMVEAKKGEELLKAEEMGAKYRATGVVPKATCGCF
For the molecule B1, the binding entry in assay [1] is on record as “binds”; in assay [2], “no binding”.
